Consider 3 molecules from article doi:10.1101/2024.09.25.614892 (bioRxiv, 2024).

By UniProt entry, the sequences of proteins in these tests, tags left out.
UniProt P06179: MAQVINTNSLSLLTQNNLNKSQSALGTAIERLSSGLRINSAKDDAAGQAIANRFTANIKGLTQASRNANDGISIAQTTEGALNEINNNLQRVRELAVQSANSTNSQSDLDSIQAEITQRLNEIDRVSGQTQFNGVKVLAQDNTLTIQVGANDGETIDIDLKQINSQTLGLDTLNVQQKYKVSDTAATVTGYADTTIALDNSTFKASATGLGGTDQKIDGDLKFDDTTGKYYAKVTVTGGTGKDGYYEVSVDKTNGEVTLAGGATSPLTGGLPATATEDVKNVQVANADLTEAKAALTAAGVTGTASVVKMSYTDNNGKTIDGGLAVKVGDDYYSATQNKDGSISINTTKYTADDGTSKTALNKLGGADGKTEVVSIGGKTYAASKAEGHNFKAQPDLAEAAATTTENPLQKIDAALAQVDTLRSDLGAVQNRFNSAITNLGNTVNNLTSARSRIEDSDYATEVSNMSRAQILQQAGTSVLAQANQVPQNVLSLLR
UniProt P0A1J5: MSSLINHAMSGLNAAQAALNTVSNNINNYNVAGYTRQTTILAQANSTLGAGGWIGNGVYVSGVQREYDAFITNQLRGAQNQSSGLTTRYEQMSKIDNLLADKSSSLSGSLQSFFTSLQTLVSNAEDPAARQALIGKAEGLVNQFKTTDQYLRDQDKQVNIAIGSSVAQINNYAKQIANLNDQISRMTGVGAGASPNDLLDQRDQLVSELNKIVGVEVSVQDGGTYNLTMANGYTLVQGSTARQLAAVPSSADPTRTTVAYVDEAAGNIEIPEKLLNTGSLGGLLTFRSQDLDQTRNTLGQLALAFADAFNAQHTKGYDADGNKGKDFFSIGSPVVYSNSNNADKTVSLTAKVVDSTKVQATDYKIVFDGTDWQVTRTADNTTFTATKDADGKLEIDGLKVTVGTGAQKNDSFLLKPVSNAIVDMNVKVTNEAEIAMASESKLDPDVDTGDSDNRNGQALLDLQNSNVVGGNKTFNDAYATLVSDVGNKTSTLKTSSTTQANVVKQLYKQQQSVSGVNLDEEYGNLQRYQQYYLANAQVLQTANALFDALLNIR

For test [1], the target named is FliC (flagellin) of Salmonella enterica (Salmonella enterica serovar Typhimurium LT2) (UniProt P06179). Description: cryo-EM structure.
In test [2] the target is T1, FlgL (hook-filament junction protein) of Campylobacter jejuni (Campylobacter jejuni).
T1 sequence: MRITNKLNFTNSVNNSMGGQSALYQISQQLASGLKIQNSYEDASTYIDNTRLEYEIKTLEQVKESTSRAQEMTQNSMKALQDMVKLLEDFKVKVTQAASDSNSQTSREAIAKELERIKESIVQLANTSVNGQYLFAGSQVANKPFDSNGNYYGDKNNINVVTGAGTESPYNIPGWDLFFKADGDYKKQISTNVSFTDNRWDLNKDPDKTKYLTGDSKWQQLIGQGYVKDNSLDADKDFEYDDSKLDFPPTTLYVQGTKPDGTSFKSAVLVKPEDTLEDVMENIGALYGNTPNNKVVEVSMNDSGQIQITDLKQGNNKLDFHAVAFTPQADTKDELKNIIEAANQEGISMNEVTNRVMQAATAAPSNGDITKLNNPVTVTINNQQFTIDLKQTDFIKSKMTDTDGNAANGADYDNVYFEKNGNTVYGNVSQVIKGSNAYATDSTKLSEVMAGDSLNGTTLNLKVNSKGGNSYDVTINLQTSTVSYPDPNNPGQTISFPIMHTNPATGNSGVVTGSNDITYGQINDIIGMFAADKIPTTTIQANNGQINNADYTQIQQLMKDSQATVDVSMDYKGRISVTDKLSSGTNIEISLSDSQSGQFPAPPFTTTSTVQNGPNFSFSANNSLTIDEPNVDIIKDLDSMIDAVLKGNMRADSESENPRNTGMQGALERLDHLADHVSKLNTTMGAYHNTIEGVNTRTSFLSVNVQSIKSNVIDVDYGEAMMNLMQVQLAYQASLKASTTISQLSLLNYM
The test is described as follows: cryo-EM structure.

No constants are given. Whether binding was seen depends on the method and setting. Some entries that bind do so weakly or less than the wild type. For part of these data: Sequences can lack the tags named with a protein.

As for “FlgK (hook-filament junction protein) of Salmonella enterica (from UniProt P0A1J5 1-553)”, the binding entry in test [1] is on record as “no binding”.

B1: FliD (flagellar filament cap protein) of Campylobacter jejuni (natural protein, UniProt Q9PHW6 1-642, looked up)
chain: MAFGSLSSLGFGSGVLTQDTIDKLKEAEQKARIDPYTKKIEENTTKQKDLTEIKTKLLSFQTAVSSLADATVFAKRKVVGSISDNPPASLTVNSGVALQSMNINVTQLAQKDVYQSKGLANDGGFVNAQLNGTADLTFFSNGKEYTVTVDKNTTYRDLADKINEASGGEIVAKIVNTGEKGTPYRLTLTSKETGEDSAISFYAGKKDSNGKYQKDINAEKIFDDLGWGLDVSASIDPDKDKKGYGIKDASLHIQTAQNAEFTLDGIKMFRSSNTVTDLGVGMTLTLNKTGEINFDVQQDFEGVTKAMQDLVDAYNDLVTNLNAATDYNSETGTKGTLQGISEVNSIRSSILADLFDSQVVDGTTEDANGNKVNTKVMLSMQDFGLSLNDAGTLSFDSSKFEQKVKEDPDSTESFFSNITKYEDINHTGEVIKTGSLSKYLNSNGGNTNGLEFKPGDFTIVFNNQTYDLSKNSDGTNFKLTGKTEEELLQNLANHINSKGIEGLKVKVESYNQNNVTGFRLNFSGDGSSDFSIKGDANILKELGLSDVNITSKPIEGKGIFSKLKATLQEMTGKDGSITKYDESLTNDIKSLNTSKDSTQAMIDTRYDTMANQWLQYESILNKLNQQLNTVTNMINAANNSNN
B1: in test [2], the binding result is recorded as “binds”.

B2: FlgK (hook-filament junction protein) of Campylobacter jejuni (natural protein, UniProt Q0P8E9 1-608, looked up)
chain: MGIFGTLYTGVTGLKASEVQIATTGNNISNANATFYTRQRVVQTTNGYITTGGVQVGTGTAVESIVRLHDEYSYYKLKGASTQLEYTKYMASTLQEIAQRFPDLQNTGILQDLENYNKAWNDFASNPNENATKIALVKASQTLTESVNNTFATLDKIQKKVNDDIKNTVDEINRIGEEIATINKQIYGQEALPTEHANELRDRRDELELTLSKLVSAVASKNEINQDNRLDTTITDPGHQYNLSIEGFSIVDGINFHPLKLDYDDKNKSYSIYYETPDEKVRDLTAKISGGQLGAQLDLRGRNYSKSEGKYEDGIIQGYMDSLDTFAKTMINETNNLYASSAKSSVTSDYLSGLKGDIPLVNYDRTIQPGSFDIVIYDDKGDKKLTKTITIDVNTTMNDIMRQINANTDDNDNKNSNDDVDDHINASFSYDAKTGDGLFQINAKSGFKVAIEDKGTNFAGAFSIGGFFSGTDASDMKVKDSILNDPSTVRASSNGVDSGNDMANKIIQLQYKKVNFYNEDGTIDNLTMEEYYRKLTGKIASDGENNNVVNSSNETLYNSVYSEYQSKSGVNTNEELAALIQYQSSYGAAAKIVSTVDQMLDTLLGLKS
On to B2, for which the binding entry in test [2] is listed as “binds”.
